Assay results reported in patent WO2019006280A1 (dated 2019).
These are yes or no findings as the source states them, for the method shown. Some binding calls cover weakened binding; strength is not graded here.

The chains behind the UniProt entries cited, without tags or fusion partners. Residues count along the entry.
UniProt P20138, residues 18-259: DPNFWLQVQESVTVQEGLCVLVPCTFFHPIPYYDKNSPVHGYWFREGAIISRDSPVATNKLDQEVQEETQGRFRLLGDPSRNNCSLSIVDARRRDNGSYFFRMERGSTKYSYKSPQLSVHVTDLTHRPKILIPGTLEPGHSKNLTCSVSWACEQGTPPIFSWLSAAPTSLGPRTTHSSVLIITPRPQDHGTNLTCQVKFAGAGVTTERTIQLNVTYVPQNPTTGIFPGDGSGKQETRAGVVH

Tests used:
[1] = target: recombinant human CD33 (human) (UniProt P20138); assay: ELISA
[2] = target: recombinant human CD33 (human) (UniProt P20138); assay: ELISA, purified VH domain on coated recombinant human CD33, HRP anti-Flag

binding [1]: binds | binding [2]: binds
B1: ml033-2 VH domain antibody (VHH)
VHH: EVQLVESGGGLVQPGGSLRLSCAASGFTFSSYGMSWVRQAPRKGLEWIGEINHSGSTNYNPSLKSRVTISRDNSKNTLYLQMNSLRAEDTATYYCARPLNYYYYYMDVWGKGTTVTVSS
notes: also called single domain antibody ml 033-2; m1033-2; not shown: His and Flag tags
